From the supplement of paper PMC10032668 come the findings set out here.

Amino acid sequences for entries named in this document (tags omitted).
CRIPT, Q9P021, UniProt Q9P021, whole entry: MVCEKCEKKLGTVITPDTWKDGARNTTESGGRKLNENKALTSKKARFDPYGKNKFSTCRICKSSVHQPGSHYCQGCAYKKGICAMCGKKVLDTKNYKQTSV
PPP1CA, P62136, UniProt P62136, whole entry: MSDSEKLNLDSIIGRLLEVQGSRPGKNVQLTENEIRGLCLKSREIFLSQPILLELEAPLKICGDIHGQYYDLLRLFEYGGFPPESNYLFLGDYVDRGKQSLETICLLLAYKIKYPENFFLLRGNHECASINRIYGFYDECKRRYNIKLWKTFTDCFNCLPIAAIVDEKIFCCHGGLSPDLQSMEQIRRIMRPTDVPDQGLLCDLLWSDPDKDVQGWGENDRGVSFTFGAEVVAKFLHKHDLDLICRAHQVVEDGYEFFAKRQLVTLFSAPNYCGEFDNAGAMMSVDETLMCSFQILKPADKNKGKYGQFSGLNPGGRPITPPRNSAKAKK
RPS6KA3, P51812, UniProt P51812, whole entry: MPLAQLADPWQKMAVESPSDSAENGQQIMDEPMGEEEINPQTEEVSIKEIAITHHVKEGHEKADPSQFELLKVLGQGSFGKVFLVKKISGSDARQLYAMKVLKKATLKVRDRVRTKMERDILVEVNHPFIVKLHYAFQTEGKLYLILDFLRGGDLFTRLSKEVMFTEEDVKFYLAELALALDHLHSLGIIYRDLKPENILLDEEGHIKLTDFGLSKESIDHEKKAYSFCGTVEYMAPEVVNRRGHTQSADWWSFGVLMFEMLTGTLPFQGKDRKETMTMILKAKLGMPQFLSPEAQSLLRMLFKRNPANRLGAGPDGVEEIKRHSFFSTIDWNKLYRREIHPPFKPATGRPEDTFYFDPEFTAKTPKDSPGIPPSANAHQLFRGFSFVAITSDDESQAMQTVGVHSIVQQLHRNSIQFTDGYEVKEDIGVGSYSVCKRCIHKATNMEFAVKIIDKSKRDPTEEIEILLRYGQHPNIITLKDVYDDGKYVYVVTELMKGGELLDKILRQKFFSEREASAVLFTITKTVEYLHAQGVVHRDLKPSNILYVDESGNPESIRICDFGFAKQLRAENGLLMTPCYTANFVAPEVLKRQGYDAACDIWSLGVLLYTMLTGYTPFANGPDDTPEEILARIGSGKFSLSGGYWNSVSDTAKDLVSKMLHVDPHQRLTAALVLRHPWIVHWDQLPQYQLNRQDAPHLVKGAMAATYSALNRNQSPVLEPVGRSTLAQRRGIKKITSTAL
CAPZB, P47756, UniProt P47756, whole entry: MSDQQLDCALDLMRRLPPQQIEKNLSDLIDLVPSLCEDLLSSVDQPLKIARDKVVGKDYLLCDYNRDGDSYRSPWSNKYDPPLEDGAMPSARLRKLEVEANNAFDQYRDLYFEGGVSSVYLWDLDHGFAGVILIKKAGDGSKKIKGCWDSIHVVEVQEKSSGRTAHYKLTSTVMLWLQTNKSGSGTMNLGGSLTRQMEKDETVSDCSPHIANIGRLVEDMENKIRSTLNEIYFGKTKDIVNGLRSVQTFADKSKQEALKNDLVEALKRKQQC
EIF3J, O75822, UniProt O75822, whole entry: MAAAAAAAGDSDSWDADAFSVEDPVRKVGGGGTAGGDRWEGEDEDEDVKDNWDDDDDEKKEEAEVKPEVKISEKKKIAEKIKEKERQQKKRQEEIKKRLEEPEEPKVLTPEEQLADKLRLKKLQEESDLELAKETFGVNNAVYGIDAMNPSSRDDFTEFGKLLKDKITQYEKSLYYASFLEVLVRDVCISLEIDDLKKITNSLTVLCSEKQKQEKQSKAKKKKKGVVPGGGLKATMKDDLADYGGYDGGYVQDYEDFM
INTS11, Q5TA45, UniProt Q5TA45, whole entry: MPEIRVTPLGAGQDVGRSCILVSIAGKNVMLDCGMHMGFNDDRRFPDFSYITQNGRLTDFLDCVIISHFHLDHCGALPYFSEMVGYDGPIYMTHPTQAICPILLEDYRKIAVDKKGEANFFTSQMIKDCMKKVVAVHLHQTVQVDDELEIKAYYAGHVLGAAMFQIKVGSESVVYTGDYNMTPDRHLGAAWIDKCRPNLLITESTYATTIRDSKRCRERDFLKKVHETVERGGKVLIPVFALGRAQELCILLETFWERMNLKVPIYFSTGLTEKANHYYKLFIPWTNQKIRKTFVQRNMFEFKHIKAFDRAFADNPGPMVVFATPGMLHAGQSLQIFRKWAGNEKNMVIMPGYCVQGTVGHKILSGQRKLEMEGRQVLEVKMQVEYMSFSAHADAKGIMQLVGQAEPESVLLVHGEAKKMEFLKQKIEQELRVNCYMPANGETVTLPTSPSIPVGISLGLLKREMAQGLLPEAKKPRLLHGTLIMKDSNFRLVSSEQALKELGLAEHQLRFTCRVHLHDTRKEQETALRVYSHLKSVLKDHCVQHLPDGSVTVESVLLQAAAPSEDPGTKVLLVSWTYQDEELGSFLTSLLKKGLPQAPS
NDUFB5, O43674, UniProt O43674, whole entry: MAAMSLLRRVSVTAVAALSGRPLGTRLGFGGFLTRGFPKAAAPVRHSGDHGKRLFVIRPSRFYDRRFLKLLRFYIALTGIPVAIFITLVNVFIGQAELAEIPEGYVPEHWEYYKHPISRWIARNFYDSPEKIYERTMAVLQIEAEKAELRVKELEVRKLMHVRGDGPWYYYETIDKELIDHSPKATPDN
RAD18, Q9NS91, UniProt Q9NS91, whole entry: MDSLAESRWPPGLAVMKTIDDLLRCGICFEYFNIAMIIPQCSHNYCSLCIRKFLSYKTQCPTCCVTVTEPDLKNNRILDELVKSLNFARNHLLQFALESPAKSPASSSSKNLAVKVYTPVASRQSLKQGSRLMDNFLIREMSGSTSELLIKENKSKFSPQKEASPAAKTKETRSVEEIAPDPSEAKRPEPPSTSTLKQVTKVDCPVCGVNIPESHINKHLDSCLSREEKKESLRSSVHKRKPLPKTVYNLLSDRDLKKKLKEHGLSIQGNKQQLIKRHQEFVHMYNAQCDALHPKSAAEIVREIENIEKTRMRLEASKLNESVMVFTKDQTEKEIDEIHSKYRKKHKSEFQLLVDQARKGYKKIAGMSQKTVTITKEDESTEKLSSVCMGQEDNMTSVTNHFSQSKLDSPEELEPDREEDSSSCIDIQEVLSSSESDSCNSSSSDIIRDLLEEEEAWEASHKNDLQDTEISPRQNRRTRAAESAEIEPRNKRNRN
USP10, Q14694, UniProt Q14694, whole entry: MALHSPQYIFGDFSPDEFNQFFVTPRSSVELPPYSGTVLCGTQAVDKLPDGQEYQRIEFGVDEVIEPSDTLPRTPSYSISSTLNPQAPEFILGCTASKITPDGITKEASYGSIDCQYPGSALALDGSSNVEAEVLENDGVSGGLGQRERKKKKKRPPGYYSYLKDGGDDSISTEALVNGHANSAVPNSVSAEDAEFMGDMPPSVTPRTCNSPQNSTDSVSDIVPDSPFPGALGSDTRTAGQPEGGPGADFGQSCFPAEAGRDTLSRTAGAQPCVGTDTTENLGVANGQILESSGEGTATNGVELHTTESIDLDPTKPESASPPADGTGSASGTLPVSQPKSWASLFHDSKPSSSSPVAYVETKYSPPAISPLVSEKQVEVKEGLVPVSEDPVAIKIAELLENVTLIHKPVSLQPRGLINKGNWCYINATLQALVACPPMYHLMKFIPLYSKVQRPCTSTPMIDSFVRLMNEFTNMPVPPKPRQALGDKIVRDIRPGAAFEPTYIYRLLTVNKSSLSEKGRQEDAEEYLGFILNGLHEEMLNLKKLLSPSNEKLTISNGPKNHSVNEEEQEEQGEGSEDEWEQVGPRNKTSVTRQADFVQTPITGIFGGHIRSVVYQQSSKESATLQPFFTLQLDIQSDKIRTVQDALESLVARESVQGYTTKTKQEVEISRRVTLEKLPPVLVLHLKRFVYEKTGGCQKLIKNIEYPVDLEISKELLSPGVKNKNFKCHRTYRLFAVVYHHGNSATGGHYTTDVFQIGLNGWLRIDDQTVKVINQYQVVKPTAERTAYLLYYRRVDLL
VPS4B, O75351, UniProt O75351, whole entry: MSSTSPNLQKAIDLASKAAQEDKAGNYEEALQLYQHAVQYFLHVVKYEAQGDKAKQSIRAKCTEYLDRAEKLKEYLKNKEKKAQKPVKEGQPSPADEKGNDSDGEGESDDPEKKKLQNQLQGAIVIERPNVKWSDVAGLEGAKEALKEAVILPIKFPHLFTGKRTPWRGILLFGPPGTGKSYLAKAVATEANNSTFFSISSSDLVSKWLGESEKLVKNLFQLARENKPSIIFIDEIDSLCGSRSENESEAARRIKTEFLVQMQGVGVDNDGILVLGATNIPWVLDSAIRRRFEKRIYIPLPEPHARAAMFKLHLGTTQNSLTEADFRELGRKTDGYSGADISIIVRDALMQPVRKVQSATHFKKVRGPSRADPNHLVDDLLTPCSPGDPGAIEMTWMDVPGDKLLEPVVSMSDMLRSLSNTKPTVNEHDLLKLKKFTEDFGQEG
CFDP1, Q9UEE9, UniProt Q9UEE9, whole entry: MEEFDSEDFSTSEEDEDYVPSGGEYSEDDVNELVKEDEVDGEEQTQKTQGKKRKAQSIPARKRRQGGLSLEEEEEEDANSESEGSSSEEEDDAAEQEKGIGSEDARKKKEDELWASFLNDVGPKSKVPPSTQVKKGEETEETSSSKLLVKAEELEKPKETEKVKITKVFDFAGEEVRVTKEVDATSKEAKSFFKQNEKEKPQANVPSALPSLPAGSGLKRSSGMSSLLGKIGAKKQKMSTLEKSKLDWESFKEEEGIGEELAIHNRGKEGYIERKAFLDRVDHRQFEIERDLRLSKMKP
EIF2S2, P20042, UniProt P20042, whole entry: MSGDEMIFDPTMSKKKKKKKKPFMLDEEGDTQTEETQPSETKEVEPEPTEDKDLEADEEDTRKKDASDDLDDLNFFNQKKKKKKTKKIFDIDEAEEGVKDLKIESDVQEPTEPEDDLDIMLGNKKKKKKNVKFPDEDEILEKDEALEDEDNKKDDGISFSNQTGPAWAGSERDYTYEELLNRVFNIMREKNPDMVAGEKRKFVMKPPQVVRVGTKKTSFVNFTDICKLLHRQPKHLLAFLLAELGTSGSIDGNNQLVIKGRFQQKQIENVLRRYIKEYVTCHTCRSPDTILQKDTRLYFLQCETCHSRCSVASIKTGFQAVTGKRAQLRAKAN
FEN1, P39748, UniProt P39748, whole entry: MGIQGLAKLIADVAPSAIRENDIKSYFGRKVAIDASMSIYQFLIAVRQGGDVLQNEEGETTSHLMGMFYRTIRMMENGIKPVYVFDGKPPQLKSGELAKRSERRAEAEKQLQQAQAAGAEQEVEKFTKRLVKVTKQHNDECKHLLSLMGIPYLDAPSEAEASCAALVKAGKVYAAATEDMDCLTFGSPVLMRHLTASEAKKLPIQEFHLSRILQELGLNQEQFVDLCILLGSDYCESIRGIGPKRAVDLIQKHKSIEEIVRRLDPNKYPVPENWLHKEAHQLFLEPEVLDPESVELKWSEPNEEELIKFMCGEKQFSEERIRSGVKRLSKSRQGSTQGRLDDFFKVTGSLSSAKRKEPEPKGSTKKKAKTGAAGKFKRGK
CCNT1, O60563, UniProt O60563, whole entry: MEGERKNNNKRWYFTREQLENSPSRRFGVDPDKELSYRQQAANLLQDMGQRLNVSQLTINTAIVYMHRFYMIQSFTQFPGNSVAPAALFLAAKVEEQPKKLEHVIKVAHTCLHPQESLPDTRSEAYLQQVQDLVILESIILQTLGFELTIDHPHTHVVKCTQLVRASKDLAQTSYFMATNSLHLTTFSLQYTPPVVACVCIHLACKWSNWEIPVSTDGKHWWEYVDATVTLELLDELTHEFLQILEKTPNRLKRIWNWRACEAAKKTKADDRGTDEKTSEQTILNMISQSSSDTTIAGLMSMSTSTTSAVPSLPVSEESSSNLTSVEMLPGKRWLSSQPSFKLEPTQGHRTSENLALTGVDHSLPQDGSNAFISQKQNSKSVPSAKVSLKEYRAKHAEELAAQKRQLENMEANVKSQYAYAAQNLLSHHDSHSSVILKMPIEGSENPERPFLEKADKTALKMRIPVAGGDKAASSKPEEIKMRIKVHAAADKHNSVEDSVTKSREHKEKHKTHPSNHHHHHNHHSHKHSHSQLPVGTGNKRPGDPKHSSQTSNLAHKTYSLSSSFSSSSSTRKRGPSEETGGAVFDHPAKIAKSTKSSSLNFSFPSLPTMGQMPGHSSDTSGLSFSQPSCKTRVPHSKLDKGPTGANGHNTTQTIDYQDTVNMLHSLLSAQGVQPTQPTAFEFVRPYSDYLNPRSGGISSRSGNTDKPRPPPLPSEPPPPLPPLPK
EIF1B, O60739, UniProt O60739, whole entry: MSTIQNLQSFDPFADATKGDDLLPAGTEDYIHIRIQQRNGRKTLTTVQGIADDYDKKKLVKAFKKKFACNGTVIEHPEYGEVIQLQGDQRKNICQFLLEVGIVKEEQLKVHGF
MAGOHB, Q96A72, UniProt Q96A72, whole entry: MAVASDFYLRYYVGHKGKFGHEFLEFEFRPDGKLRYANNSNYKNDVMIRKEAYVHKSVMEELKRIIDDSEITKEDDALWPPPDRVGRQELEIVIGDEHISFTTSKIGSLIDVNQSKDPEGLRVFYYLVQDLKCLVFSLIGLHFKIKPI

The other results are listed elsewhere or left out. The list holds hits alone, and they repeat only in part.

Assay in all cases: PRISMA enrichment of interactor (LFQ) in peptide spot vs all other peptide spots (log2 fold change); higher = stronger / more specific binding of the interactor to the peptide
In assay [1] the target is AGL, P35573. The method, then:
(§1)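 PRISMA: 15-aa overlapping tiles (offset 8 aa) of 60 microproteins, plus SOS1/GLUT1 control peptides, were spot-synthesized on cellulose membranes in triplicate. Membranes were incubated with benzonase-treated HEK293T lysate, and bound proteins were identified by LC-MS/MS with LFQ. Enrichment is the log2 fold change of each protein in one spot versus all other spots. Only interactors passing the significance cutoff are listed.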

Assay [2] deals with CHPT1, Q8WUD6. On the procedure:
as §1

In assay [3] the target is CRIPT, Q9P021. The method, then:
as §1

Assay [4] addresses CSNK2A2, P19784. The method, then: as §1
In assay [5] the target is DDX28, Q9NUL7. On the procedure:
as §1

In assay [6] the target is MAP4K4, O95819. On the procedure:
as §1

The target of assay [7] is MRPL13, Q9BYD1. The method, then:
as §1

Assay [8] addresses MRPL40, Q9NQ50. The method, then: as §1
The target of assay [9] is PCLAF, Q15004. On the procedure: as §1
In assay [10] the target is PPIL2, Q13356. On the procedure: as §1
The target of assay [11] is PPP1CA, P62136. The method, then: as §1
Assay [12] addresses RPS6KA3, P51812. The method, then: as §1
For assay [13], the target named is SMU1, Q2TAY7. The method, then:
as §1

Assay [14] addresses AGK, Q53H12. The method, then: as §1
Assay [15] concerns the target GPC1, P35052. The method, then: as §1
The target of assay [16] is ITSN2, Q9NZM3. The method, then:
as §1

Assay [17] addresses NDC1, Q9BTX1. On the procedure: as §1
Assay [18] concerns the target NOP53, Q9NZM5. On the procedure: as §1
The target of assay [19] is NOP56, O00567. On the procedure: as §1
The target of assay [20] is SNX1, Q13596. The method, then: as §1
The target in assay [21] is TNIK, Q9UKE5. The method, then:
as §1

Assay [22] has as its target AGFG1, P52594. On the procedure:
as §1

Assay [23] has as its target ANP32A, P39687. The method, then: as §1
Assay [24] addresses C1QBP, Q07021. On the procedure:
as §1

Assay [25] deals with CAPZB, P47756. On the procedure: as §1
Assay [26] deals with CKAP2L, Q8IYA6. The method, then:
as §1

Assay [27] deals with DPM3, Q9P2X0. On the procedure: as §1
Assay [28] deals with EIF3J, O75822. The method, then: as §1
For assay [29], the target named is FASTKD5, Q7L8L6. On the procedure: as §1
Assay [30] addresses INTS11, Q5TA45. On the procedure: as §1
The target in assay [31] is NDUFB5, O43674. On the procedure: as §1
Assay [32] has as its target NSFL1C, Q9UNZ2. The method, then:
as §1

Assay [33] addresses NTMT1, Q9BV86. On the procedure:
as §1

In assay [34] the target is RAD18, Q9NS91. On the procedure: as §1
Assay [35] addresses RAE1, P78406. On the procedure:
as §1

The target in assay [36] is SH3BGRL3, Q9H299. On the procedure: as §1
Assay [37] addresses STMN1, P16949. On the procedure:
as §1

In assay [38] the target is TXLNG, Q9NUQ3. The method, then: as §1
Assay [39] deals with TXNDC5, Q8NBS9. The method, then: as §1
Assay [40] concerns the target USP10, Q14694. The method, then:
as §1

Assay [41] deals with VPS4B, O75351. The method, then: as §1
Assay [42] deals with XRN1, Q8IZH2. The method, then:
as §1

Assay [43] concerns the target ZNF687, Q8N1G0. The method, then: as §1
The target in assay [44] is ANP32B, Q92688. The method, then: as §1
For assay [45], the target named is ARL2, P36404. The method, then:
as §1

Assay [46] has as its target CFDP1, Q9UEE9. The method, then: as §1
Assay [47] addresses DUSP3, P51452. On the procedure: as §1
The target of assay [48] is ECD, O95905. On the procedure:
as §1

The target in assay [49] is EIF2S2, P20042. On the procedure: as §1
The target in assay [50] is FEN1, P39748. The method, then: as §1
Assay [51] has as its target LRRFIP1, Q32MZ4. On the procedure:
as §1

Assay [52] deals with NUCKS1, Q9H1E3. The method, then: as §1
Assay [53] concerns the target RO60, P10155. On the procedure:
as §1

Assay [54] deals with SYAP1, Q96A49. On the procedure: as §1
Assay [55] concerns the target USP24, Q9UPU5. On the procedure: as §1
Assay [56] concerns the target VPS25, Q9BRG1. On the procedure:
as §1

Assay [57] has as its target CCNT1, O60563. On the procedure:
as §1

Assay [58] concerns the target DDX52, Q9Y2R4. The method, then:
as §1

In assay [59] the target is EIF1B, O60739. On the procedure: as §1
The target of assay [60] is GPAA1, O43292. The method, then: as §1
Assay [61] deals with GTF3C5, Q9Y5Q8. On the procedure: as §1
Assay [62] concerns the target HOMER3, Q9NSC5. The method, then:
as §1

The target in assay [63] is MAGOHB, Q96A72. The method, then:
as §1

The target of assay [64] is PLAA, Q9Y263. The method, then: as §1
Assay [65] has as its target POLR2B, P30876. The method, then: as §1
Assay [66] addresses PRRC2A, P48634. On the procedure: as §1
For assay [67], the target named is RAB3GAP1, Q15042. The method, then:
as §1

The target of assay [68] is TAB2, Q9NYJ8. On the procedure: as §1
The target of assay [69] is UBAP2L, Q14157. The method, then:
as §1

B1: NDUFB3 (peptide)
chain: LAAKGLRDPWGRNEA
In the case of B1, the “PRISMA enrichment of interactor (log2)” value in assay [1] was 3.82; in [2] it was 5.27; in [3] it was 4.18; in [4], 6.09; in assay [5], 5.17; in assay [6] it was 4.68. Besides, the “PRISMA enrichment of interactor (log2)” value in assay [7] is 4.56; in assay [8] it was 4.32; in assay [9] it was 4.2; in assay [10], 4.92; in assay [11] it was 5.25; in assay [12], 3.97. For the same molecule, in assay [13], the “PRISMA enrichment of interactor (log2)” value amounted to 4.32.

B2: CTC-471J1.11 (peptide)
chain: IVNAKRFRSRIKTEA
Turning to B2, the “PRISMA enrichment of interactor (log2)” value in [14] is 5.2; in [15], 4.68; in assay [16] it was 4.97; in assay [17] it was 6.29; in [18], 5.99; in [19] it was 4.53. The “PRISMA enrichment of interactor (log2)” value in [20] stood at 6.39; in assay [21], 5.81.

B3: RNF10 (peptide)
chain: PRRARSAPTAVAAEA
In the case of B3, the “PRISMA enrichment of interactor (log2)” value is 5.37 in assay [22]; 5.85 in [23]; 7.05 in assay [24]; 6.58 in assay [25]; 6.19 in assay [26]; 5.2 in assay [5]. The “PRISMA enrichment of interactor (log2)” value is 4.99 in [27]; 4.91 in assay [28]; 7.68 in assay [29]; 5.24 in assay [30]; 4.2 in [31]; 4.91 in assay [32]. Also, the “PRISMA enrichment of interactor (log2)” value in [33] amounted to 4.76; in assay [34], 4.69; in assay [35], 5.74; in assay [36], 3.78; in [37], 8.2; in assay [38], 5.21. The “PRISMA enrichment of interactor (log2)” value in [39] came out at 4.7; in assay [40] it was 4.85; in [41] it was 4.29; in assay [42], 5.02; in assay [43], 4.59.

B4: IFRD1 (peptide)
chain: LSRPPHRRTSKKCSS
For the molecule B4, the “PRISMA enrichment of interactor (log2)” value worked out at 6.38 in [22]; 5.61 in [23]; 6.06 in [44]; 5.15 in [45]; 4.87 in assay [46]; 5.05 in assay [47]. The “PRISMA enrichment of interactor (log2)” value in assay [48] is 5.06; in [49], 8.86; in assay [50] it was 4.79; in assay [51], 4.78; in assay [52], 9.22; in [53], 6.29. The entries for the “PRISMA enrichment of interactor (log2)” value in [54], in assay [55] and in [56] were 4.22, 4.23 and 4.7, respectively.

B5: IDI2-AS1 (peptide)
chain: PFRQSSSLSRTFSSR
For B5, the “PRISMA enrichment of interactor (log2)” value came to 5.69 in assay [14]; 4.88 in [57]; 5.41 in assay [58]; 4.18 in assay [59]; 6.05 in [60]; 5.07 in assay [61]. Also, the “PRISMA enrichment of interactor (log2)” value stood at 5.31 in [62]; 8.5 in [63]; 4.65 in assay [64]; 5.55 in assay [65]; 4.44 in assay [66]; 6.7 in assay [67]. The “PRISMA enrichment of interactor (log2)” value turned out to be 5.24 in assay [68] and 7.94 in assay [69].
